Data on two molecules can be found in PMC9637222, “Autoinducer-2 and bile salts induce c-di-GMP synthesis to repress the T3SS via a T3SS chaperone” (Nature Communications, 2022).

Sequences of proteins named here, by UniProt entry; tags and fusion partners are left off.
UniProt P69066: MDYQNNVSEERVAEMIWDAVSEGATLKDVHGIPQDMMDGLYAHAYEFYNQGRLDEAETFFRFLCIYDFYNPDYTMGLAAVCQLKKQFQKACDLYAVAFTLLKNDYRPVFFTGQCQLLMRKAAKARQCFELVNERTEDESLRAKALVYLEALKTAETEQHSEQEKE

This assay deals with SicA-HA (S. Typhimurium) (UniProt P69066). In words: co-IP.

These are yes or no findings as the source states them, for the method shown. In cells and extracts the contact can be indirect. Some entries that bind do so weakly or less than the wild type. Tags and fused reporters may be left off the sequences shown.

B1: SipB-His6 (protein, UniProt Q56019 1-593)
chain: MVNDASSISRSGYTQNPRLAEAAFEGVRKNTDFLKAADKAFKDVVATKAGDLKAGTKSGESAINTVGLKPPTDAAREKLSSEGQLTLLLGKLMTLLGDVSLSQLESRLAVWQAMIESQKEMGIQVSKEFQTALGEAQEATDLYEASIKKTDTAKSVYDAATKKLTQAQNKLQSLDPADPGYAQAEAAVEQAGKEATEAKEALDKATDATVKAGTDAKAKAEKADNILTKFQGTANAASQNQVSQGEQDNLSNVARLTMLMAMFIEIVGKNTEESLQNDLALFNALQEGRQAEMEKKSAEFQEETRKAEETNRIMGCIGKVLGALLTIVSVVAAVFTGGASLALAAVGLAVMVADEIVKAATGVSFIQQALNPIMEHVLKPLMELIGKAITKALEGLGVDKKTAEMAGSIVGAIVAAIAMVAVIVVVAVVGKGAAAKLGNALSKMMGETIKKLVPNVLKQLAQNGSKLFTQGMQRITSGLGNVGSKMGLQTNALSKELVGNTLNKVALGMEVTNTAAQSAGGVAEGVFIKNASEALADFMLARFAMDQIQQWLKQSVEIFGENQKVTAELQKAMSSAVQQNADASRFILRQSRA
On to B1, for which the binding result is listed as “binds”.

B2: InvF-His6 (protein, UniProt P69343 1-216)
chain: MSFSESRHNENCLIQEGALLFCEQAVVAPVSGDLVFRPLKIEVLSKLLAFIDGAGLVDTTYAESDKWVLLSPEFRAIWQDRKRCEYWFLQQIITPSPAFNKVLALLRKSESYWLVGYLLAQSTSGNTMRMLGEDYGVSYTHFRRLCSRALGGKAKSELRNWRMAQSLLNSVEGHENITQLAVNHGYSSPSHFSSEIKELIGVSPRKLSNIIQLADK
B2: the binding result is on record as “binds”.
